From patent US11274214B2, “Composition of water based coating with a low content of volatile organic compounds and high resistance to dirt handle, and, use of water based coating” (OXITENO S.A. INDÚSTRIA E COMÉRCIO, priority 2017, dated 2022)

Assays:
[1] = Plastification efficiency: effect of coalescent on minimum film formation temperature (MFFT/TMFF) of latex; settings: for MFFT Delta: promoted by 1% of coalescer relative to the polymer, estimated by Touissant formula
[2] = Hardness evolution of styrene-acrylic latex films containing 8 pcp coalescent; settings: drying times greater than or equal to 7 days, FIG. 5
[3] = Resistance to dirt grip of semi-gloss paint films (delta E, internal methodology); settings: semi-gloss paint films dried 82 days; FIG. 14

Compound	MFFT Delta [1]	Hardness evolution of polymer films [2]	Coalescent content relative to the polymer sufficient to form film at 5° C. ([1]; based on the MFFT results of FIG. 2)	Concentration needed to form latex film at 5° C., lower than the market coalescents by ([1]; styrene-acrylic latex, FIG. 2)	Mean delta E difference versus OPTIFILM 300 [3]
CCCCC(CC)COC(=O)CCC(=O)OCC(CC)CCCC (stereo not drawn) [2-ethylhexyl succinate, reference compound]	0.6 °C	–	–	–	–
CC(C)C(=O)OCC(C)(C)C(OC(=O)C(C)C)C(C)C (stereo not drawn) [OPTIFILM 300]	2.4 °C	does not allow a significant evolution of the hardness	–	–	–
CC(C)C(=O)OCC(C)(C)C(O)C(C)C (stereo not drawn) [Texanol]	2.4 °C	–	–	–	–
isopentyl succinate	3.1 °C	more pronounced hardness evolution than the films containing Texanol®	around 6%	20%	~3
